Where “and” joins values, the source holds several entries; their conditions need not be identical. Identical values can stand only once.
Test system: tyrosinase
Assay: Tyrosinase inhibition (L-Dopa, dopachrome absorbance at 475 nm, procedure of Manson and Peterson)
Format: biochemical, mushroom
Experimental: This experiment was conducted according to the procedure of Manson and Peterson. A 0.5 ml L-Dopa solution (0.03% in pH6.8 PBS) was added to 0.5 ml of a test liquid, and incubated for 5 minutes at 25° C. After which, a 0.5 ml of tyrosinase solution (obtained from a mushroom) was added and the mixture was further incubated for 5 minutes at 25° C. […] Kojic acid was used for a positive control test.

| SMILES | Absorbance (× 1,000) (D1-D2) (concentration 5 (μM)) | Absorbance (× 1,000) (D1-D2) (concentration 20 (μM)) | Absorbance (× 1,000) (D1-D2) (concentration 50 (μM)) | Absorbance (× 1,000) (D1-D2) (concentration 50 μg/ml) | Absorbance (× 1,000) (D1-D2) (concentration 200 μg/ml) |
| --- | --- | --- | --- | --- | --- |
| O=c1cc(CO)occ1O [Kojic Acid, Kojic acid] | 478.0 ± 3.1 × 1,000 and 526.0 ± 2.6 × 1,000 and 562.8 ± 2.0 × 1,000 | 240.7 ± 3.5 × 1,000 and 276.8 ± 1.9 × 1,000 and 301.5 ± 1.5 × 1,000 | 122.8 ± 1.7 × 1,000 and 144.3 ± 2.0 × 1,000 and 158.7 ± 1.2 × 1,000 | – | – |
| OCC1O[C@@H](OCC2O[C@@H](Oc3c[nH]c4ccccc34)C(O)C(O)[C@@H]2O)C(O)C(O)[C@@H]1O (stereo partly drawn) [Calanthoside A, 3-O-β-D-glucopyranosyl (1-6)-β-D-glucopyranosylindole] | – | – | – | 454.0 ± 0.0 × 1,000 | 252.0 ± 0.0 × 1,000 |
